Assay results taken from article PMC6712044.
These are yes or no findings as the source states them, for the method shown. In cells and extracts the contact can be indirect. Some binding calls cover weakened binding; strength is not graded here. For part of these data: Sequences can lack the tags named with a protein. Each block holds one molecule with its values, some of them ahead of it.

Sequences of proteins named here, by UniProt entry; tags and fusion partners are left off.
UniProt Q14145: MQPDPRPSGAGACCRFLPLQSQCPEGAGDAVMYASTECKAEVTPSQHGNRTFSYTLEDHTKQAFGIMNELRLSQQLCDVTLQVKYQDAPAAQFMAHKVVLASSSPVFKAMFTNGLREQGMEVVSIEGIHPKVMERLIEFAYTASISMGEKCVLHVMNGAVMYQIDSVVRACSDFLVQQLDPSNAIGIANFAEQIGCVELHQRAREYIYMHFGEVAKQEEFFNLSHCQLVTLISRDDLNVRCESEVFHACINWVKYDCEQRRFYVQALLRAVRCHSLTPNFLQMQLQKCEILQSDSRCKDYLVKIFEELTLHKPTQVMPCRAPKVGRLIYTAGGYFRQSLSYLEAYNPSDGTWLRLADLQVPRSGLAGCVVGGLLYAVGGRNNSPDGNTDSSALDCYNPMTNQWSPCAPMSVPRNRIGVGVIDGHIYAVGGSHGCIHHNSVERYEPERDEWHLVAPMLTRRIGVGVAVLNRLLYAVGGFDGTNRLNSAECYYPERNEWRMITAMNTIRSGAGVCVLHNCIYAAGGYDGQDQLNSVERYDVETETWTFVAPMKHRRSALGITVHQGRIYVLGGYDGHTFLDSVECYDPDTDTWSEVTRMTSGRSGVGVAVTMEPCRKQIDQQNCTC

How the values were obtained:
HA-PIDD = target: T1, HA-PIDD (UniProt Q9HB75); assay: co-IP; HEK293T cells transiently transfected with FLAG-KEAP1 and HA-PIDD, lysed 48 h after transfection; IP with anti-FLAG or anti-HA on protein G-Sepharose, 2 h at 4 °C, washed three times with PBS; immunoblot
T1 sequence: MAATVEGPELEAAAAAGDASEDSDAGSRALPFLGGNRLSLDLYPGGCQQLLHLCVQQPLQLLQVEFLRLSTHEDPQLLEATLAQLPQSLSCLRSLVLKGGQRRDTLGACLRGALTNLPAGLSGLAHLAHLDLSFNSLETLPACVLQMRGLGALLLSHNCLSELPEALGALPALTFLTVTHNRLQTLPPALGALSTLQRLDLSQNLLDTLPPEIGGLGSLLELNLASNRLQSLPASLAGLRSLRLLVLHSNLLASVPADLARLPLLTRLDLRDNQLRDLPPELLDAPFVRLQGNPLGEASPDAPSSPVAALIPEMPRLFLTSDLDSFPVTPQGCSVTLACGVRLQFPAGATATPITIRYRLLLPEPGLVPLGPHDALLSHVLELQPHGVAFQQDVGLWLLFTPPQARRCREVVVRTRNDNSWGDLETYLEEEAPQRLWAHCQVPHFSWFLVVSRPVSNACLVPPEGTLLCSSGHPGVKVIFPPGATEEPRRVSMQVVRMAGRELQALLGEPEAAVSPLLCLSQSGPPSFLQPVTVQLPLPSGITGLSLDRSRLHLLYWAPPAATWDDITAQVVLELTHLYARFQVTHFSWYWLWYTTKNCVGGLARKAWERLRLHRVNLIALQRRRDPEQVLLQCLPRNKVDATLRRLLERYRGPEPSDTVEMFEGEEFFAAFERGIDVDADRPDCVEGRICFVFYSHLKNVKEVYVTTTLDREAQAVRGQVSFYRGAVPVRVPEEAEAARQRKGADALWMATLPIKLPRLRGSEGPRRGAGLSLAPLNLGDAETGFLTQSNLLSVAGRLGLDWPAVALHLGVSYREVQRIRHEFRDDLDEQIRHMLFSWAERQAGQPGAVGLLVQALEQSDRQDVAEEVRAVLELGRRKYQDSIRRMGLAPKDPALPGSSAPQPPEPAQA

FLAG-KEAP1 = FLAG-KEAP1 (UniProt Q14145); assay: as above
[1] = target: endogenous KEAP1 (human (endogenous in H1299)) (UniProt Q14145); assay: co-IP; endogenous proteins in H1299 NSCLC cell lysate; reciprocal IP with anti-PIDD or anti-KEAP1 on protein G-Sepharose, 2 h at 4 °C, washed three times with PBS; immunoblot

binding (HA-PIDD): binds
Molecule: FLAG-KEAP1 (from UniProt Q14145 1-624)

binding (FLAG-KEAP1): binds
B1: HA-PIDD (protein, UniProt Q9HB75 1-910)
chain: MAATVEGPELEAAAAAGDASEDSDAGSRALPFLGGNRLSLDLYPGGCQQLLHLCVQQPLQLLQVEFLRLSTHEDPQLLEATLAQLPQSLSCLRSLVLKGGQRRDTLGACLRGALTNLPAGLSGLAHLAHLDLSFNSLETLPACVLQMRGLGALLLSHNCLSELPEALGALPALTFLTVTHNRLQTLPPALGALSTLQRLDLSQNLLDTLPPEIGGLGSLLELNLASNRLQSLPASLAGLRSLRLLVLHSNLLASVPADLARLPLLTRLDLRDNQLRDLPPELLDAPFVRLQGNPLGEASPDAPSSPVAALIPEMPRLFLTSDLDSFPVTPQGCSVTLACGVRLQFPAGATATPITIRYRLLLPEPGLVPLGPHDALLSHVLELQPHGVAFQQDVGLWLLFTPPQARRCREVVVRTRNDNSWGDLETYLEEEAPQRLWAHCQVPHFSWFLVVSRPVSNACLVPPEGTLLCSSGHPGVKVIFPPGATEEPRRVSMQVVRMAGRELQALLGEPEAAVSPLLCLSQSGPPSFLQPVTVQLPLPSGITGLSLDRSRLHLLYWAPPAATWDDITAQVVLELTHLYARFQVTHFSWYWLWYTTKNCVGGLARKAWERLRLHRVNLIALQRRRDPEQVLLQCLPRNKVDATLRRLLERYRGPEPSDTVEMFEGEEFFAAFERGIDVDADRPDCVEGRICFVFYSHLKNVKEVYVTTTLDREAQAVRGQVSFYRGAVPVRVPEEAEAARQRKGADALWMATLPIKLPRLRGSEGPRRGAGLSLAPLNLGDAETGFLTQSNLLSVAGRLGLDWPAVALHLGVSYREVQRIRHEFRDDLDEQIRHMLFSWAERQAGQPGAVGLLVQALEQSDRQDVAEEVRAVLELGRRKYQDSIRRMGLAPKDPALPGSSAPQPPEPAQA

binding [1]: binds
B2: endogenous PIDD (protein, UniProt Q9HB75 1-910)
chain: MAATVEGPELEAAAAAGDASEDSDAGSRALPFLGGNRLSLDLYPGGCQQLLHLCVQQPLQLLQVEFLRLSTHEDPQLLEATLAQLPQSLSCLRSLVLKGGQRRDTLGACLRGALTNLPAGLSGLAHLAHLDLSFNSLETLPACVLQMRGLGALLLSHNCLSELPEALGALPALTFLTVTHNRLQTLPPALGALSTLQRLDLSQNLLDTLPPEIGGLGSLLELNLASNRLQSLPASLAGLRSLRLLVLHSNLLASVPADLARLPLLTRLDLRDNQLRDLPPELLDAPFVRLQGNPLGEASPDAPSSPVAALIPEMPRLFLTSDLDSFPVTPQGCSVTLACGVRLQFPAGATATPITIRYRLLLPEPGLVPLGPHDALLSHVLELQPHGVAFQQDVGLWLLFTPPQARRCREVVVRTRNDNSWGDLETYLEEEAPQRLWAHCQVPHFSWFLVVSRPVSNACLVPPEGTLLCSSGHPGVKVIFPPGATEEPRRVSMQVVRMAGRELQALLGEPEAAVSPLLCLSQSGPPSFLQPVTVQLPLPSGITGLSLDRSRLHLLYWAPPAATWDDITAQVVLELTHLYARFQVTHFSWYWLWYTTKNCVGGLARKAWERLRLHRVNLIALQRRRDPEQVLLQCLPRNKVDATLRRLLERYRGPEPSDTVEMFEGEEFFAAFERGIDVDADRPDCVEGRICFVFYSHLKNVKEVYVTTTLDREAQAVRGQVSFYRGAVPVRVPEEAEAARQRKGADALWMATLPIKLPRLRGSEGPRRGAGLSLAPLNLGDAETGFLTQSNLLSVAGRLGLDWPAVALHLGVSYREVQRIRHEFRDDLDEQIRHMLFSWAERQAGQPGAVGLLVQALEQSDRQDVAEEVRAVLELGRRKYQDSIRRMGLAPKDPALPGSSAPQPPEPAQA
